Measured values as given in publication PMC9332868.
No constants are given. Whether binding was seen depends on the method and setting. Binding seen in cells or lysates may run through a third protein. Some results given as binding are weak or reduced against the parent protein; the word gives no strength.

The chains behind the UniProt entries cited, without tags or fusion partners.
UniProt P27361: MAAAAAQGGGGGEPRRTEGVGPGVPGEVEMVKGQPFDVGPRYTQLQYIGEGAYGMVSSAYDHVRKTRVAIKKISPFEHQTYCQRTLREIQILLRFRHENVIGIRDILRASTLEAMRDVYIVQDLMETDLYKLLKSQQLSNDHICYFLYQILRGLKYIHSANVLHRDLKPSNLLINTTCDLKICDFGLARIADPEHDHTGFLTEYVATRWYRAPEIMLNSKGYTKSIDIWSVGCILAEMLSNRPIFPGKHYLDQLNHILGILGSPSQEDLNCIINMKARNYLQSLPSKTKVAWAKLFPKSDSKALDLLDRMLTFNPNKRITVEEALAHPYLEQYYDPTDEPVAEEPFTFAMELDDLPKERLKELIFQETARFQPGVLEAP

Target: MEK2 (human (endogenous in HGC27 and AGS)) (UniProt P36507)
Test: co-IP; MEK1 or MEK2 immunoprecipitated from HGC27 and AGS cells, with or without tegaserod maleate treatment; ERK1/2 in the precipitate detected by Western blotting with anti-p-ERK1/2 T202/Y204

binding: binds
Substance: ERK1 (from UniProt P27361 1-379)
